According to article PMC6249220:
These are yes or no findings as the source states them, for the method shown. In cells and extracts the contact can be indirect. Binding calls can cover weak binding; strength is not graded here. Tags and fused reporters may be left off the sequences shown.

Molecular target: Flag-synpo-long (synaptopodin, long isoform)
Test: co-IP; HEK293T co-transfected with Flag-synpo-long and GFP-NEFH, 72 h; lysate in IP buffer (50 mM Tris pH 7.5, 150 mM NaCl, 1.0% Triton X100); anti-FLAG-M2 agarose beads overnight at 4 °C; blot with anti-GFP antibody

binding: binds
B1: GFP-NEFH (neurofilament heavy polypeptide) (protein, UniProt P19246 1-1090)
chain: MMSFGSADALLGAPFAPLHGGGSLHYSLSRKAGPGGTRSAAGSSSGFHSWARTSVSSVSASPSRFRGAASSTDSLDTLSNGPEGCVVAAVAARSEKEQLQALNDRFAGYIDKVRQLEAHNRSLEGEAAALRQQQAGRAAMGELYEREVREMRGAVLRLGAARGQLRLEQEHLLEDIAHVRQRLDEEARQREEAEAAARALARFAQEAEAARVELQKKAQALQEECGYLRRHHQEEVGELLGQIQGCGAAQAQAQAEARDALKCDVTSALREIRAQLEGHAVQSTLQSEEWFRVRLDRLSEAAKVNTDAMRSAQEEITEYRRQLQARTTELEALKSTKESLERQRSELEDRHQADIASYQDAIQQLDSELRNTKWEMAAQLREYQDLLNVKMALDIEIAAYRKLLEGEECRIGFGPSPFSLTEGLPKIPSISTHIKVKSEEMIKVVEKSEKETVIVEGQTEEIRVTEGVTEEEDKEAQGQEGEEAEEGEEKEEEEGAAATSPPAEEAASPEKETKSRVKEEAKSPGEAKSPGEAKSPAEAKSPGEAKSPGEAKSPGEAKSPAEPKSPAEPKSPAEAKSPAEPKSPATVKSPGEAKSPSEAKSPAEAKSPAEAKSPAEAKSPAEAKSPAEAKSPAEAKSPATVKSPGEAKSPSEAKSPAEAKSPAEAKSPAEAKSPAEVKSPGEAKSPAEPKSPAEAKSPAEVKSPAEAKSPAEVKSPGEAKSPAAVKSPAEAKSPAAVKSPGEAKSPGEAKSPAEAKSPAEAKSPIEVKSPEKAKTPVKEGAKSPAEAKSPEKAKSPVKEDIKPPAEAKSPEKAKSPVKEGAKPPEKAKPLDVKSPEAQTPVQEEAKHPTDIRPPEQVKSPAKEKAKSPEKEEAKTSEKVAPKKEEVKSPVKEEVKAKEPPKKVEEEKTLPTPKTEAKESKKDEAPKEAPKPKVEEKKETPTEKPKDSTAEAKKEEAGEKKKAVASEEETPAKLGVKEEAKPKEKTETTKTEAEDTKAKEPSKPTETEKPKKEEMPAAPEKKDTKEEKTTESRKPEEKPKMEAKVKEDDKSLSKEPSKPKTEKAEKSSSTDQKESQPPEKTTEDKATKGEK
